# Results of single-concentration screens

The chains behind the UniProt entries cited, without tags or fusion partners. Residues count along the entry.
UniProt Q8IDJ8, 1-583: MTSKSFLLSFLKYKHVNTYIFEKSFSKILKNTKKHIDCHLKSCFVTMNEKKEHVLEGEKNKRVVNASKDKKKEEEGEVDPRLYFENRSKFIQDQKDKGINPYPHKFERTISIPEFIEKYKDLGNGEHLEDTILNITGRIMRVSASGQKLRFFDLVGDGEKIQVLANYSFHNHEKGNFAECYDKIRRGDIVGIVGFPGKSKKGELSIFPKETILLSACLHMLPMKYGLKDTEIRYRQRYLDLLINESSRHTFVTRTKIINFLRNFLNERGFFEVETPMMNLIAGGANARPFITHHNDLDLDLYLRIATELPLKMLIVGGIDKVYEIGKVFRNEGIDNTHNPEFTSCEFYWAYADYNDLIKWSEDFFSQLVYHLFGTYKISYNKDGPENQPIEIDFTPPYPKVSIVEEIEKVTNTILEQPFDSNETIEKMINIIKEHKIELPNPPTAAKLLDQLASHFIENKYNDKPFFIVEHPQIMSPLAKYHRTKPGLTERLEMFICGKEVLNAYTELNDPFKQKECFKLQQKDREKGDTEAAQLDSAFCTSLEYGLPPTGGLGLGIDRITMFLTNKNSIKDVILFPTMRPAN

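Enzyme assay of the cytosolic lysyl-tRNA synthetase in 384-well plates, read by luminescence. Target: Lysine-tRNA ligase, Plasmodium falciparum 3D7 (UniProt Q8IDJ8). Concentration: 30 µM. Direction is inferred from only a few compounds that gave an IC50; most scored high, so higher reads as stronger inhibition. Size under these conditions: about 69,000 compounds, about 49 of them at 50% or above in at least one test.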

Values are the deposited “Percent Effect”, in %. The controls that fix the scale are not given in the record; negative values are as filed. The compounds are a random part of those screened.

compound	percent effect
CNC(=O)CS(=O)(=O)C1CCN(S(=O)(=O)C2CC2)CC1	-2.33
CC(C)(CO)CCCNC(=O)NC1(c2ccccc2F)CC1	-0.9077
CC(=O)NCC1CCCN(C(=O)Cc2c(C)noc2C)C1 (stereo not drawn)	0.477
Cc1cc(CN(C)CC2CCCN(CCc3ccc(Cl)cc3)C2)[nH]n1 (stereo not drawn)	6.451
O=C(c1ccccc1-n1cccn1)N1CCC(Nc2cccnn2)CC1	1.558
CC(=O)N1CCC2(CCN(CC3CCOC3)C2)CC1 (stereo not drawn)	2.04
CCOc1ccc(C(C)Nc2ncnc3c2CCNC3)cc1OCC (stereo not drawn)	5.683
Cc1occc1C(=O)N1CCn2c(Cn3cncn3)cnc2C1C (stereo not drawn)	3.774
Cc1nc2c(c(=O)[nH]1)CCN(Cc1ccc3c(c1)CCCN3C)C2	-0.4796
CNC(=O)[C@H]1C[C@@H]2CN(C(=O)c3cncc(C)c3)C[C@@H]2N1C	2.668
CN1CC(=O)N(c2ccccc2)Cc2c(NC3CC3)ncnc21	-3.688
CC(NC(=O)C1=NN(C)C(=O)CC1)c1ccc(Cl)cc1 (stereo not drawn)	6.558
Cc1csc(N2CCCN(C(=O)C(C)n3ccnc3)CC2)n1 (stereo not drawn)	-1.271
CN1CCN(CCC(F)(F)C(F)F)CC12CCNC(=O)CC2 (stereo not drawn)	-0.1501
CCn1cc(CN2CCCN(C(=O)c3ccc(C#N)cc3)CC2)cn1	3.973
Cc1cccc(C2CCCN(C(=O)CN3CCC(C(N)=O)CC3)C2)c1 (stereo not drawn)	5.808
CC(C)(C)c1ccc(C(=O)NCCCNC(=O)c2cnccn2)cc1	1.474
O=C(C1CC1)N1C[C@H]2CNC[C@@]2(C(=O)NCCCc2ccccc2)C1	5.123
O=C(c1ccc(=O)[nH]n1)N1CCC(CN2CCOCC2)CC1	7.052
Cc1cnn(CC2CN(CC(=O)Nc3nccs3)CCO2)c1 (stereo not drawn)	1.694
CCC(C)CNC(=O)[C@@H]1CCCN1c1nccc(Nc2ccccc2)n1 (stereo partly drawn)	3.914
Cc1cc(C)n(C2CN(c3nc(-c4ccncc4)nc4c3CCC4)C2)n1	-0.3022
CC(C)N1CCc2[nH]nc(C(=O)N3CCOCC3)c2C1	3.487
Cc1cc(N2CCCC2)c(C#N)c(C)n1	-8.422
CC(C)CC(=O)NC1CC2(CCN(CCF)CC2)Oc2ccccc21 (stereo not drawn)	4.691
O=S(=O)(C1CC1)N1C[C@H]2CCC[C@@]2(COc2ccccn2)C1	1.761
O=C(CCc1ccco1)NS(=O)(=O)N1CCOc2ccccc21	5.721
Cc1nc(CCNC(=O)CC2CCN(C(C)C)CC2)sc1Cl	-0.8798
COc1ccc(C(NCc2cccc(C#N)c2)C(C)C)cc1 (stereo not drawn)	3.43

From ChEMBL document CHEMBL3988442, “University of Dundee, Small-Polar-MMV Screening Library” (2021).